Values of other authors as cited in patent publication US20150216167A1 (Heinrich Heine Universitat Dusseldorf, priority 2011, published 2015).
For at least one compound, name, drawing or mass did not settle the structure.

What was measured:
[1] = system: pyruvate phosphate dikinase (PPDK); conditions: PPDK from C4 plants maize, millet and proso millet; cited from earlier work
PEP carboxylase = conditions: Pairoba et al. (1996); cited from earlier work
[2] = cited from earlier work

SMILES: C=C1CCC[C@H]2[C@](C)(CC3=C(O)C(=O)C=C(OC)C3=O)[C@@H](C)CC[C@]12C [ilimaquinone]
- selective inhibitors of PPDK [1]: selective inhibitors

SMILES: C[C@@H]1O[C@@H](Oc2c(-c3ccc(O)c(O)c3)oc3cc(O)cc(O)c3c2=O)[C@H](O)[C@H](O)[C@H]1O [quercitrin]
- inhibition of PEP carboxylase from C4 plant Amaranthus viridis (PEP carboxylase): inhibited

SMILES: C/C=C(\C)c1cc(O)c(C)c2c1Oc1cc(O)cc(C)c1C(=O)O2 [unguinol]
- anti-microbial activity [2]: anti-microbial
